This is one part of the list.
Each target was assayed with c1ccc([C@@H]2C[C@H]2NC2CCNCC2)cc1 (assay: log2 fold change, soluble protein after heating vs DMSO (PISA); higher = thermal stabilisation; K562 lysate, 10 uM; active = over 0.2 and 3.5 SD of the protein, either way, in both replicates (recomputed)).
Outline: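 Soluble protein was defined as the supernatant remaining after 21,000xg for 90 min, following pooling of heated aliquots and adjustment to 0.5% NP-40 at 4°C. Before that, crude K562 extract at 1 mg/mL protein in PBS pH 7.4 with 1 mM MgCl2 was treated with 10 μM compound for 30 min and heated for 3 min across 48°C-58°C. Quantification used TMTpro 16plex LC-MS/MS with channel sums equalised, and values are log-two fold changes in thermal stability relative to solvent controls from duplicates.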

Amino acid sequences for entries named in this document (tags omitted). A change or cut given only in a name is not applied to a line headed by its entry.
UniProt Q5SSJ5: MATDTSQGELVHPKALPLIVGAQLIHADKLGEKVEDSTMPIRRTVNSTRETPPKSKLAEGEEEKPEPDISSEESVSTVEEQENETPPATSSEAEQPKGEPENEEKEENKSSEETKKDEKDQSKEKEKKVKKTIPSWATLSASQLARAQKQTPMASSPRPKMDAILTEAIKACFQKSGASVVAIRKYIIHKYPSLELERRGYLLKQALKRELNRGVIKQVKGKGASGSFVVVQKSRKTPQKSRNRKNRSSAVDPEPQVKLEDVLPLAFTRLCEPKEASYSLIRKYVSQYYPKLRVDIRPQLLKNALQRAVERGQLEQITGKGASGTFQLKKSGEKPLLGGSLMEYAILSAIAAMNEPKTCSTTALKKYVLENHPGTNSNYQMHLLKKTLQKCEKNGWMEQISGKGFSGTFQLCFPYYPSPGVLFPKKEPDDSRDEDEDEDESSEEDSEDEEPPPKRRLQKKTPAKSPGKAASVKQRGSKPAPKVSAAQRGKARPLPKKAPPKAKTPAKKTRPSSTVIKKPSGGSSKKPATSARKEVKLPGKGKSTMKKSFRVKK
UniProt P51659: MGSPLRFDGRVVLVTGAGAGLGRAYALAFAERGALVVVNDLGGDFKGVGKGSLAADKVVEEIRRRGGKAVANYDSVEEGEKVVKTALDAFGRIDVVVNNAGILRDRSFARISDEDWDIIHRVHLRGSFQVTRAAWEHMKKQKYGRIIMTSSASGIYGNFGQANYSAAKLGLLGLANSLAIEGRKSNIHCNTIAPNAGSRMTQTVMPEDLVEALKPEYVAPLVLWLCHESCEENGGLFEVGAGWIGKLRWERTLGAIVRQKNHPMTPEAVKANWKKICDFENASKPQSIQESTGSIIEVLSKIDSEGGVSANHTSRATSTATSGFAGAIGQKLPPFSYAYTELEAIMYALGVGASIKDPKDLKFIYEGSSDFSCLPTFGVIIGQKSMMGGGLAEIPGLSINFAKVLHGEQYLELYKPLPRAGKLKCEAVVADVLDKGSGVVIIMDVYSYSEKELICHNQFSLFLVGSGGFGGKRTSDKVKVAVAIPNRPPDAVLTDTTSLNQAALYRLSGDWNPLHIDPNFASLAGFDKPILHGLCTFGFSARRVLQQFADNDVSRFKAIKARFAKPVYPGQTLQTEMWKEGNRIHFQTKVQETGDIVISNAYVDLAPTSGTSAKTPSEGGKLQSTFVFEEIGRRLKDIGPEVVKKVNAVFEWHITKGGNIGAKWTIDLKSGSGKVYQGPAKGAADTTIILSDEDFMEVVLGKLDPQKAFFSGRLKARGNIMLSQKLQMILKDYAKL
UniProt Q6NVY1: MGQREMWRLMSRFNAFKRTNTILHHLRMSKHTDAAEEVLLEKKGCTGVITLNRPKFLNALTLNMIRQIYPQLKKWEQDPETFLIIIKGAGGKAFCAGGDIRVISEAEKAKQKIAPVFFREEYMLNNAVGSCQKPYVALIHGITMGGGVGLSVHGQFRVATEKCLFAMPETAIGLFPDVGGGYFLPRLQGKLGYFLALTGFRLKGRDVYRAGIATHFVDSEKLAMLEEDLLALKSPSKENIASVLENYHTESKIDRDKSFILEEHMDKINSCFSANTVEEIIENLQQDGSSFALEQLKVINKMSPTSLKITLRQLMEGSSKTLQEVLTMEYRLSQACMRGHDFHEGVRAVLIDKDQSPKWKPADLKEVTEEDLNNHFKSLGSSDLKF
UniProt O75146: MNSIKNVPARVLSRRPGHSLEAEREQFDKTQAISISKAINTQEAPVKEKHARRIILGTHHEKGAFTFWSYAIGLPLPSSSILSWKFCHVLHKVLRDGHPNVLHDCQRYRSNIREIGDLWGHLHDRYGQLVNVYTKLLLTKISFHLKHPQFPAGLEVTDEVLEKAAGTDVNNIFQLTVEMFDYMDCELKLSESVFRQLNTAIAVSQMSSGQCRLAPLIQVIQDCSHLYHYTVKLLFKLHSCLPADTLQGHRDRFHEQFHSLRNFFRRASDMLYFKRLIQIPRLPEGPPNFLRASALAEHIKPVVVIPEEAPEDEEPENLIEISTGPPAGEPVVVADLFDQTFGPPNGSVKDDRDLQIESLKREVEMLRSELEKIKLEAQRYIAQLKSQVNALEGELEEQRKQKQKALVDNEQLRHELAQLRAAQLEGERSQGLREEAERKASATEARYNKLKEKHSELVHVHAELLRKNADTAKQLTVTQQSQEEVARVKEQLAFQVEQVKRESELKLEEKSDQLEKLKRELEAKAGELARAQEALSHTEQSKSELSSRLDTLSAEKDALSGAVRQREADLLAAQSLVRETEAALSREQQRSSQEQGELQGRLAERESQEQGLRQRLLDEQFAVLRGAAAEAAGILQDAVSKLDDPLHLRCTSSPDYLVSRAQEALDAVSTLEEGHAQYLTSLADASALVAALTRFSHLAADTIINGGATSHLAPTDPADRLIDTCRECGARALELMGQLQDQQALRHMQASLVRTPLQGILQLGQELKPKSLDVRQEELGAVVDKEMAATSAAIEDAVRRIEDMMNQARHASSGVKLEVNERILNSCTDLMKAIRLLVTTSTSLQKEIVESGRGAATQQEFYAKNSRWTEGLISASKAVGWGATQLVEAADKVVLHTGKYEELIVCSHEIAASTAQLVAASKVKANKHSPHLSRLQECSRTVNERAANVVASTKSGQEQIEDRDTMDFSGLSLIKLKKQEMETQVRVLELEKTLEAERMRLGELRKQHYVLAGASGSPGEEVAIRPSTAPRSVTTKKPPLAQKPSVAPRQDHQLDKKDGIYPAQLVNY
UniProt Q99729: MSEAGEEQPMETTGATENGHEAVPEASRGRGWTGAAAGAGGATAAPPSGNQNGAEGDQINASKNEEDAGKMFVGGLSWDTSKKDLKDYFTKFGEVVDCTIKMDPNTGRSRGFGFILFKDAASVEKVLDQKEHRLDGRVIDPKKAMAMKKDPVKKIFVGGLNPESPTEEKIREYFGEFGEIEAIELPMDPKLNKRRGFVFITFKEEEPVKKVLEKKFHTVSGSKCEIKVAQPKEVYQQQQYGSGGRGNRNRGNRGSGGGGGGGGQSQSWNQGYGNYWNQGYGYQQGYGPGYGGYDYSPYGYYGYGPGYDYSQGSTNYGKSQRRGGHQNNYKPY
UniProt P08238, whole entry, looked up: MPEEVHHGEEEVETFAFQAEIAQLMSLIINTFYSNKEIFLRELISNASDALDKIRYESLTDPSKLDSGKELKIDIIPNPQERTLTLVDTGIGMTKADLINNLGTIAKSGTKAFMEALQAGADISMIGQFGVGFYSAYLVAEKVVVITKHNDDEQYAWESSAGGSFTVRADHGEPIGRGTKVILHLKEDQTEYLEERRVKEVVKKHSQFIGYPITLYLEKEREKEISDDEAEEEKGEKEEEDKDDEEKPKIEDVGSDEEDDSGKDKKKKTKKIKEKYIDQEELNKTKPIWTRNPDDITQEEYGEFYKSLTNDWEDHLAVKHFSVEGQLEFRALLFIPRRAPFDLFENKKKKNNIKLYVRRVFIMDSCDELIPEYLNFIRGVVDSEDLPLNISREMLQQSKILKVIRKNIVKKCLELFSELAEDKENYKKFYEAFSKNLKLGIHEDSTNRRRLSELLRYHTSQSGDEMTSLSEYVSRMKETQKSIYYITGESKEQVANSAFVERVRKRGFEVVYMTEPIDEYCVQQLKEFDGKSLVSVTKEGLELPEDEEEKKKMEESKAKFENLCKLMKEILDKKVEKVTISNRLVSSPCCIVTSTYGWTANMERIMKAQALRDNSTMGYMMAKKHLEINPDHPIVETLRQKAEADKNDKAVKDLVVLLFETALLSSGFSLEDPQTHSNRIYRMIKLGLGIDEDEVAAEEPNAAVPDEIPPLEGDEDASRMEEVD
UniProt P19367: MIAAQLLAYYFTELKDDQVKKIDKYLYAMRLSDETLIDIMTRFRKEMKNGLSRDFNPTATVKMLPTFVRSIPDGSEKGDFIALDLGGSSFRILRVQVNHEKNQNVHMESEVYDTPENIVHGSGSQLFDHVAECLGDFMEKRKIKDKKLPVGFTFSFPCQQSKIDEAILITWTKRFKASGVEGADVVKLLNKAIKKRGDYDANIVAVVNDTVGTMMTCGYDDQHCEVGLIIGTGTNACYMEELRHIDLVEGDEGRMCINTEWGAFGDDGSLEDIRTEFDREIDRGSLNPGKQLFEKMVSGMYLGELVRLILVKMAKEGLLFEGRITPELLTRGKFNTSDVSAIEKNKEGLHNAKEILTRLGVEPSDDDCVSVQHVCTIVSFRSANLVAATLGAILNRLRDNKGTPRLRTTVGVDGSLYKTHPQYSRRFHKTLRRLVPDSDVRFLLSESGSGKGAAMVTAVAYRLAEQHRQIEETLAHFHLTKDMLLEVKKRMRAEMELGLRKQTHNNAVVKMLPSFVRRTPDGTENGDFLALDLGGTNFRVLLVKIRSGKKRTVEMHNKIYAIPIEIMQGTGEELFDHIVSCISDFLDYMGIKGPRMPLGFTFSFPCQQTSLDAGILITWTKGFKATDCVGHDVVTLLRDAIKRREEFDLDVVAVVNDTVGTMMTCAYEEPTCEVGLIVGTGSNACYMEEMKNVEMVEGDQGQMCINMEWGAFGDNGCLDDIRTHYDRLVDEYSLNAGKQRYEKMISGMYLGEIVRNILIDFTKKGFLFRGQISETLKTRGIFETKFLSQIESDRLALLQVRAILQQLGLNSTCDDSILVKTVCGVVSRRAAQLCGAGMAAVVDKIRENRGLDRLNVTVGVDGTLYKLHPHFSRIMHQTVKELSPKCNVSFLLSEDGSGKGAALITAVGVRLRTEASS
UniProt Q6DN03, whole entry, looked up: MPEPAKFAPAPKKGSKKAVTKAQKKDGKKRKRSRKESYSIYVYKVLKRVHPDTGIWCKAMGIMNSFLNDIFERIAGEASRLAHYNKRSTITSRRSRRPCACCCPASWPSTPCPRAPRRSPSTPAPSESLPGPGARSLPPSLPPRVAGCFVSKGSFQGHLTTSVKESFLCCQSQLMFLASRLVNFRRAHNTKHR
UniProt P49773: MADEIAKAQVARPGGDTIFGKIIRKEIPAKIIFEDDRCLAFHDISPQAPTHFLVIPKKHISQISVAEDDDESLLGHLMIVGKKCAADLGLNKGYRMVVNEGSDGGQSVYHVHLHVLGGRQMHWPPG
UniProt O75506: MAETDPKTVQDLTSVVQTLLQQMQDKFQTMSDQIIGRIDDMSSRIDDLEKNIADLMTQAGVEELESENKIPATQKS
UniProt Q9NWY4: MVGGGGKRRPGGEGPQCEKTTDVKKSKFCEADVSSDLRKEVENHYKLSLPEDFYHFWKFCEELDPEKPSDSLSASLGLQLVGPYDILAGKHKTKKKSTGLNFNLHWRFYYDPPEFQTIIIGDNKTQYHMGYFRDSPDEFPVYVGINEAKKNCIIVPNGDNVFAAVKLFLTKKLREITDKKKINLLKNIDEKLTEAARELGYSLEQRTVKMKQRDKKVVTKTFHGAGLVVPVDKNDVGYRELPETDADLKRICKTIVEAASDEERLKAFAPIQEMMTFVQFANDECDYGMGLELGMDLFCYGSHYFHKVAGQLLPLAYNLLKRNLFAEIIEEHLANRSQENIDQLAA
UniProt P0DMV8, whole entry, looked up: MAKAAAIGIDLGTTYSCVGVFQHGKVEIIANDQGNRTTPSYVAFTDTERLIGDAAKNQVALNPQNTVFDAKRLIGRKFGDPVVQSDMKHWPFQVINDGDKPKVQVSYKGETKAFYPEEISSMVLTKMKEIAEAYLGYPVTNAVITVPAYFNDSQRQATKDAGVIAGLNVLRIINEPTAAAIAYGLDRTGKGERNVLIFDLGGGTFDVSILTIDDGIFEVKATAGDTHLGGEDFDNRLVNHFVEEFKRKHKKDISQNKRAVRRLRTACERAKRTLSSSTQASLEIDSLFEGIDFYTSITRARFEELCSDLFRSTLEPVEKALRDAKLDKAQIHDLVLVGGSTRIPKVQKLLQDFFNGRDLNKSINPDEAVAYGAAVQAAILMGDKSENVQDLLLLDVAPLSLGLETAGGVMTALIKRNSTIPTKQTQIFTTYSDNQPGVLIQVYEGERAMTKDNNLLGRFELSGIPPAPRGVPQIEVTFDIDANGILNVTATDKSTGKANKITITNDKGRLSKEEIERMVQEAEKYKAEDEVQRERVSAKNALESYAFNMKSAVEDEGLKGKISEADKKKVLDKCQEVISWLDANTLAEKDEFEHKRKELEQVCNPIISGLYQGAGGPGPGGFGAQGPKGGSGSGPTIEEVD
UniProt Q9NRV9: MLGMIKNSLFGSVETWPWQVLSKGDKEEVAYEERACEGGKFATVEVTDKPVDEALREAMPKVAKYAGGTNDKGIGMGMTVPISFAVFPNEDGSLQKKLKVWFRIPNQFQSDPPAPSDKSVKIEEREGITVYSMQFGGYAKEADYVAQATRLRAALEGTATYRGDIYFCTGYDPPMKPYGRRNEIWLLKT
UniProt P17483: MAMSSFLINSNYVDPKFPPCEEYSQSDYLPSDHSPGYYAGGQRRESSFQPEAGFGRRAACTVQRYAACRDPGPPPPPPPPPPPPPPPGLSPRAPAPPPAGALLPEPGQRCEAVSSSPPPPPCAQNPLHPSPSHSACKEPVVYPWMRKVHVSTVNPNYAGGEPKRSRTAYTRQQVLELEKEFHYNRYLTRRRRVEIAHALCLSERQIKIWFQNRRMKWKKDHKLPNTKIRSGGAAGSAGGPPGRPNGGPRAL

| Target | log2 fold change |
| --- | --- |
| HIC2 (UniProt Q96JB3) | inactive: -0.031 |
| HP1BP3 (UniProt Q5SSJ5) | inactive: -0.021 |
| HSD17B4 (UniProt P51659) | inactive: 0.007 |
| HS2ST1 (UniProt Q7LGA3) | inactive: -0.015 |
| HIBCH (UniProt Q6NVY1) | inactive: 0.033 |
| HSDL1 (UniProt Q3SXM5) | inactive: -0.06 |
| HEATR5B (UniProt Q9P2D3) | inactive: -0.027 |
| HIP1R (UniProt O75146) | inactive: 0.033 |
| HNRNPR isoform 2 (UniProt O43390) | inactive: 0.031 |
| HNRNPAB isoform 3 (UniProt Q99729) | inactive: -0.069 |
| HSP90AA1 isoform 2 (UniProt P07900) | inactive: 0.037 |
| HOMER1 (UniProt Q86YM7) | inactive: 0.08 |
| HNRNPH3 (UniProt P31942) | inactive: 0.013 |
| HSPA2 (UniProt P54652) | inactive: -0.142 |
| HOOK3 (UniProt Q86VS8) | inactive: 0.024 |
| HEXIM1 (UniProt O94992) | inactive: -0.032 |
| HSP90AB1 (UniProt P08238) | inactive: 0.077 |
| HNRNPC (UniProt P07910) | inactive: 0.022 |
| HK1 isoform 2 (UniProt P19367) | inactive: 0.016 |
| HLTF (UniProt Q14527) | inactive: 0.011 |

| Target | log2 fold change |
| --- | --- |
| HIST2H2BC (UniProt Q6DN03) | inactive: 0.165 |
| HSP90AA4P (UniProt Q58FG1) | inactive: -0.308 |
| HM13 (UniProt Q8TCT9) | inactive: -0.133 |
| HINT1 (UniProt P49773) | inactive: -0.068 |
| HEMGN (UniProt Q9BXL5) | inactive: 0.026 |
| HSBP1 (UniProt O75506) | inactive: 0.183 |
| HMG20B (UniProt Q9P0W2) | inactive: 0.177 |
| HERC2 (UniProt O95714) | inactive: -0.037 |
| HPF1 (UniProt Q9NWY4) | inactive: 0.038 |
| HSPA1A (UniProt P0DMV8) | inactive: 0.062 |
| HNRNPA2B1 (UniProt P22626) | inactive: -0.008 |
| HPS5 (UniProt Q9UPZ3) | inactive: -0.125 |
| HEBP1 (UniProt Q9NRV9) | inactive: -0.037 |
| HNRNPDL (UniProt O14979) | inactive: -0.071 |
| HMGCL (UniProt P35914) | inactive: 0.006 |
| HNRNPUL1 (UniProt Q9BUJ2) | inactive: -0.006 |
| HNRNPUL2 (UniProt Q1KMD3) | inactive: 0.032 |
| HOXB4 (UniProt P17483) | inactive: 0.236 |
| HIBADH (UniProt P31937) | inactive: 0 |
| HMCES (UniProt Q96FZ2) | inactive: 0.043 |

Part of the list above, with each value named.
HOMER1 (UniProt Q86YM7)
  log2 fold change: inactive: 0.08
HNRNPH3 (UniProt P31942)
  log2 fold change: inactive: 0.013
HSPA2 (UniProt P54652)
  log2 fold change: inactive: -0.142

From the supplement of paper PMC10849652
